Data on 1 substance can be found in publication PMC9233733.

Chains of the proteins cited; added tags and fusions are not shown.
UniProt Q5U249: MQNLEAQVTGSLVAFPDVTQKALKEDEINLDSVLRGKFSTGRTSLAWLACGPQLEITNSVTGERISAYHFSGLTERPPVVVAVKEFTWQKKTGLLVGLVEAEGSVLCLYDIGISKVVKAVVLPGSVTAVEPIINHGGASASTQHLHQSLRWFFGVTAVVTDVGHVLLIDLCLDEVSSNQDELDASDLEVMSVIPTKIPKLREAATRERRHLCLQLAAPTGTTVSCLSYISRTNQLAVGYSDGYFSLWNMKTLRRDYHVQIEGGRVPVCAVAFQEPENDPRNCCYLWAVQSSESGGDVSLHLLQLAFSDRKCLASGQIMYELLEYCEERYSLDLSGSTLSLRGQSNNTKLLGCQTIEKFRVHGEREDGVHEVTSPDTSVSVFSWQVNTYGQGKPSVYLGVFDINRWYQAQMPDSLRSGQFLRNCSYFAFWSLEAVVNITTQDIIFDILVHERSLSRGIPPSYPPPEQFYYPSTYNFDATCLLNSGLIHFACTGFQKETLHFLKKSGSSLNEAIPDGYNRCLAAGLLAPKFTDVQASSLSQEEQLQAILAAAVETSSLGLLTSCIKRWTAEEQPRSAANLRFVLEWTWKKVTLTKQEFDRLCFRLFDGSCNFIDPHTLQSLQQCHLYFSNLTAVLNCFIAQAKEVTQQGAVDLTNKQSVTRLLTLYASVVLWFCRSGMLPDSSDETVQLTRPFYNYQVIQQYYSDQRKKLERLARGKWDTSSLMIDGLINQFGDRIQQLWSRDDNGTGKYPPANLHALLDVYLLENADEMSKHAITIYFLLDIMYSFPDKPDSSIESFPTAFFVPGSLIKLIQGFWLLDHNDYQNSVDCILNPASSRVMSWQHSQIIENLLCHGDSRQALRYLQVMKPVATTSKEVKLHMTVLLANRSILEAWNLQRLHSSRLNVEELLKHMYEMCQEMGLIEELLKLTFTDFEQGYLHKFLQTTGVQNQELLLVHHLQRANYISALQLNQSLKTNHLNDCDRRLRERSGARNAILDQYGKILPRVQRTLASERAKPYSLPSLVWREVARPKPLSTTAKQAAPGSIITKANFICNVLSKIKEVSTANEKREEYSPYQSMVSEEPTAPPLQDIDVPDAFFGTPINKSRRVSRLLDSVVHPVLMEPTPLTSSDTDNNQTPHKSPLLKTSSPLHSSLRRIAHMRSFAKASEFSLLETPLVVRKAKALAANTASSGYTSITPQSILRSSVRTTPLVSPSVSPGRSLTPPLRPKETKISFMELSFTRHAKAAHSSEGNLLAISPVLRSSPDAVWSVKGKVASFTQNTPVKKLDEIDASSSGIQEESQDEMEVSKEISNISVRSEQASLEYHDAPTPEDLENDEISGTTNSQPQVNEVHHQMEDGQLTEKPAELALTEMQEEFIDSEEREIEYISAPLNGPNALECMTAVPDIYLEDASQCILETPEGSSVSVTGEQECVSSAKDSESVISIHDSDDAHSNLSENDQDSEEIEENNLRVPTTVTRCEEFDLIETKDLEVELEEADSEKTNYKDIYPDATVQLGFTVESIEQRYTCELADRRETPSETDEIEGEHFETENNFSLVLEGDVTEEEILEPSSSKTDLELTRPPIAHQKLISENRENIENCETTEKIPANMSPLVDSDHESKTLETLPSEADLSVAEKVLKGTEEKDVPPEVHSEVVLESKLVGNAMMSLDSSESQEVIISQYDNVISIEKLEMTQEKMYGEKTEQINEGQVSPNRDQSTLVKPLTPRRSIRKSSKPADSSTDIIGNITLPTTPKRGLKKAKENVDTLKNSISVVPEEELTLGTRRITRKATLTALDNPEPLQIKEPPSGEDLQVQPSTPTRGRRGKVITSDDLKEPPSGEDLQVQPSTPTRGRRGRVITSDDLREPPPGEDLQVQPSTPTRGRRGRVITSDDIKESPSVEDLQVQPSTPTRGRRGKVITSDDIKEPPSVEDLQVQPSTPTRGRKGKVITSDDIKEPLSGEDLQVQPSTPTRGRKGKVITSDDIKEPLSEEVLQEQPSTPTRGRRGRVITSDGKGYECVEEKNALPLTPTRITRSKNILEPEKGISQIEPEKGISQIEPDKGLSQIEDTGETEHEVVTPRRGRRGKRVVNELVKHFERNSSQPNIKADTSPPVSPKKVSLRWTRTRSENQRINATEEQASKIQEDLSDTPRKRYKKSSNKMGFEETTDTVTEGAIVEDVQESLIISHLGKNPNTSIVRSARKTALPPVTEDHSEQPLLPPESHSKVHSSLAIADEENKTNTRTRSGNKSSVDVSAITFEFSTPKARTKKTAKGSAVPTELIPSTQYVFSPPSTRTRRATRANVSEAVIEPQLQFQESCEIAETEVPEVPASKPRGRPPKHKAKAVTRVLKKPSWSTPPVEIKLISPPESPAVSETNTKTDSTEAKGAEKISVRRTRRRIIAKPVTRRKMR

This assay concerns the target T1, Nup85 (Xenopus laevis (endogenous in oocytes)) (UniProt Q68FJ0).
T1 sequence: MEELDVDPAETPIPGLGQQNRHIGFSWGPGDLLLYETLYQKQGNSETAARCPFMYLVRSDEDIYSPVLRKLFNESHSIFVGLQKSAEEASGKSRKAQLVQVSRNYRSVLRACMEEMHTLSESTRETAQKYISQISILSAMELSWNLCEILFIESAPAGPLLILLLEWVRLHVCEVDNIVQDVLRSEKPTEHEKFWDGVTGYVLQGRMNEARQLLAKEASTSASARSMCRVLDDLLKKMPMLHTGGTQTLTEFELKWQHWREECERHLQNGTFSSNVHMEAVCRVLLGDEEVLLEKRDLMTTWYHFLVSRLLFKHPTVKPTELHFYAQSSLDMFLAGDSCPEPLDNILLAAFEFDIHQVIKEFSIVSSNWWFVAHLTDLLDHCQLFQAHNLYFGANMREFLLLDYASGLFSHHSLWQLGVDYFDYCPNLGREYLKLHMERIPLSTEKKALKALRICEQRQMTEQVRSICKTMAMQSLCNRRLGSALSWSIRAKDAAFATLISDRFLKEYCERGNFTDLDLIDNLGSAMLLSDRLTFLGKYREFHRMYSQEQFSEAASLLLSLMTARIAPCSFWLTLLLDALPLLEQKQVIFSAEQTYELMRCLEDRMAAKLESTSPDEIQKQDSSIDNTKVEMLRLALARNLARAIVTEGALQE
In words: cryo-EM structure; nuclear ring (NR) subunit of NPCs in the X. laevis oocyte nuclear envelope spread on the grid in HEPES buffer (83 mmol/L KCl, 17 mmol/L NaCl, 10 mmol/L HEPES, pH 7.5), cross-linked with 0.15% glutaraldehyde; single particle analysis, maps at 8.1 Å (subunit), 7.8 Å (core), 8.6 Å (Nup133 region); AlphaFold2 models fitted by MDFF.

These are yes or no findings as the source states them, for the method shown. Some entries that bind do so weakly or less than the wild type.

On to “ELYS (embryonic large molecule derived from the yolk sac) (from UniProt Q5U249 1-2408)”, for which the binding entry was “binds”.
